Results deposited as PubChem BioAssay AID1259308 (NCATS, 2017)

Screen: 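Candidate targets for better recombinant protein yield in mammalian cells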 (primary screen)
System: human HEK293 embryonic kidney cells stably expressing firefly luciferase (HEK-CMV-Luc2-Hygro)
Knock-down reagent: single siRNA against human genes, 0.8 pmol siRNA per well
Duration: 72 h
Measured: 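Reporter luminescence and viable-cell signal on separate replicate plates, given as percent of non-targeting control and median/MAD z-scores, plus per-cell luciferase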
Direction: total luciferase, z-score: higher = more reporter protein produced
Rule for the call: 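Active when the median/MAD z-score for overall luciferase is greater than 3; a gene was taken forward for validation with new siRNAs if at least two of its three siRNAs passed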
Meaning of the calls: active = raised luciferase; inactive = no rise
Here is a random part of about 59,000 deposited reagents. About 1,510 of them (2.6%) were called active. 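Calls use total luciferase alone and ignore viability, so some active siRNAs may act by altering cell number.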 Entries without a mark were called inactive. Reagents against one gene are numbered here. Further read-outs or replicates are left out here. Reagent sequences are not shown.

ZNF282 #1: total luciferase, z-score = 0.823
ZNF282 #2: total luciferase, z-score = 0.562
ZNF282 #3: total luciferase, z-score = -0.703
OR8B12 #1: total luciferase, z-score = -1.32
OR8B12 #2: total luciferase, z-score = -1.2
OR8B12 #3: total luciferase, z-score = -0.0329
LLPHP3 #1: total luciferase, z-score = -0.248
LLPHP3 #2: total luciferase, z-score = -1.31
LLPHP3 #3: total luciferase, z-score = 0.985
KCNF1 #1: total luciferase, z-score = -0.394
KCNF1 #2: total luciferase, z-score = -2.92
KCNF1 #3: total luciferase, z-score = 0.198
RSPH1 #1: total luciferase, z-score = -0.166
RSPH1 #2: total luciferase, z-score = 0.182
RSPH1 #3: total luciferase, z-score = -0.422
EXOC1L #1: total luciferase, z-score = -0.506
EXOC1L #2: total luciferase, z-score = 1.66
EXOC1L #3: total luciferase, z-score = 2.13

2 entries from above, ordered by “total luciferase, z-score”, high to low.
LLPHP3 #3: total luciferase, z-score = 0.985
KCNF1 #1: total luciferase, z-score = -0.394

The list goes on.
NDUFB7 #1: total luciferase, z-score = 0.656
NDUFB7 #2: total luciferase, z-score = 0.47
NDUFB7 #3: total luciferase, z-score = -0.13
GGT7 #1: total luciferase, z-score = 0.517
GGT7 #2: total luciferase, z-score = 0.0534
GGT7 #3: total luciferase, z-score = 1.59
ACAT2 #1: total luciferase, z-score = -0.188
ACAT2 #2: total luciferase, z-score = -0.067
ACAT2 #3: total luciferase, z-score = -0.885
B3GAT2 #1: total luciferase, z-score = 1.81
B3GAT2 #2: total luciferase, z-score = 2.69
B3GAT2 #3: total luciferase, z-score = 0.0928
SETDB2 #1: total luciferase, z-score = -0.693
SETDB2 #2: total luciferase, z-score = -1.35
SETDB2 #3: total luciferase, z-score = -1.54
SYTL3 #1: total luciferase, z-score = -0.141
SYTL3 #2: total luciferase, z-score = -0.629
SYTL3 #3: total luciferase, z-score = -0.657
BEST1 #1: total luciferase, z-score = -2.33
BEST1 #2: total luciferase, z-score = 0.0245
BEST1 #3: total luciferase, z-score = -0.522
INSRR #1: total luciferase, z-score = 1.97
INSRR #2: total luciferase, z-score = 0.137
INSRR #3: total luciferase, z-score = 0.0485
